# Data as given in the RNAGym collection of RNA variant scans (doi:10.1126/science.aae0568).
# Variants at the background level are over-represented here.
# B1: tRNA (parent)
# chain: GUUCCGUUGGCGUAAUGGUAACGCGUCUCCCUCCUAAGGAGAAGACUGCGGGUUCGAGUCCCGUACGGAACG
# Variants of: B1
# Experiment: yeast fitness relative to wild type (ratio to wild type); higher = fitter; tRNA-Arg(CCU), competitive growth, 37 C, YPD
# In short: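 Variants of the tRNA-Arg(CCU) gene were chemically synthesised with a 3% per-site mutation rate across 69 sites and placed at the native genomic locus in Saccharomyces cerevisiae. Six parallel replicates of the pooled strains were competed in YPD at 37°C for 24 hours, and gene amplicons from the start and end populations were read by 100-nucleotide paired-end sequencing. Darwinian fitness relative to wild type was derived from changes in genotype frequencies. Genotypes required ≥ 100 starting reads, and estimates < 0.5 were set to 0.5.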
row,Variant,yeast fitness
1,GUUCCGUUGACGAAAUGGUAACGAGUCUCCCUCCUAAGGAGAAGACUGCGGGUUCGUGUCUCGUACGGAACG,≤ 0.5
2,GUUCUGUUGGCGUAAUGGUAACGCGUCUCCCUCCUAAGAAAAAGUUUGCGGGUUCGAGUCCCGUACGGAACG,≤ 0.5
3,GUCCCGUUGGCGUAAUGGUAACGCGUCUCGCUCCUAAGGAGAAGACUGCGGGUUCGAGUCCCCUACGGAACG,≤ 0.5
4,GUUCCGUUGGCGUAAUGGUAACGCGUGUCCCUCCUAAGGAGAAGACGACGGGUUCGAGUCCCGUACGGAACG,≤ 0.5
5,GUUCCGUUGGCGUAAUGGUAACGCGUCUCUCUCCUAAGGAGAAGACUGCGGGUUCGAGUCCCGUACGCAACG,0.813
6,GUUCUGUUGGCGUAAUGGUAACGCGUCUCUCUCCUAAGGAGAAAACUGCGGGUUCAAGUCCCGUACGGAACG,≤ 0.5
7,GUUCCGUUGGCGUAAUCGUAACGCGUCUCCCUCCUAAGGAGAAGACUGCGGGUUCGCGUCCCGUACGGAACG,≤ 0.5
8,GAUCCGUUGGGGUAAUGGUAACGCGUCUCCCUCCUAUGGAGAAGACUGGGGGUUCGAGUGCCGUACGGAACG,≤ 0.5
9,GUUCCGUUGGCGUAAUGGUAACGCGUCUCCCUCCUAAGGAGACGACUGGGGGUUCGGGUCCCGUACGGAACG,0.591
10,GUUCCGUUGGCGUAAUGAUAACGCGUCUCCCUCCUAAGGAGAAGACUGUGGGUUCGAGUCCCGUACGGAACG,0.892
11,GUUCCGUUGGCGUAAUGGUAACGUGUCUCCCUCCUCAGGAGAAGACUGAGGGUUCGAGUCCCGUACGGAACG,≤ 0.5
12,GUUCCGUCGGCGUGAGGGUAACGCAUCUCCCUCCUAAGGAGAAGACUGCGGGUUCGAGUCCCGUACGAAACG,≤ 0.5
13,GUUCCGUUGGCGUCAUGGUAACGCGUCUCCCUCCUAAGGAGAAGACUGCGGGUUCGAAUCCCGUACGGAACG,0.868
14,GCUCCGUUGGCGUAAUGGUAACGCGUCUCCCUCCUAAGGAGAAGACCGCGGGUUCGAGUCCCGUACCGAACG,0.719
15,GUUCCGUUGGCGUAAUGGUACCGCGUCUCCCUCCUAAGGAGAAGAUUGCGGGUUCGAGUCCCGUACGGAACG,0.909
16,GUUACGUUGGCGUAAUGGUAACGCGUCUCCCUGCUAAGGAGAAGACAGCGGGUUCGAGUCCCGUACGGAACG,0.625
17,GUUUCGUUGGCGUAAUGGUAACGCAUCUCCCUCCUAAGGAGAAGACUGCGGGUUCGAGUCCCGUAUGGAACG,0.75
18,GGUCCAUUGGCGUAAUGGUAACGCGUUUCCCUCCUAAGGAGAAGACUGCGGGUUCGAGUCCCAUGCGGAACG,≤ 0.5
19,GUUCGGUUGGAGUAAUGGUAACGCGUCUCGCUCCUAAGGAGAAGACUGCGGGUUCGAGUCCCGAACGGAACG,≤ 0.5
20,GUUCGGGUGGCGUAAUGGUAACGCGUCUCCCUCCUAAGGAGAAGACUGCGGGUUCGAGUCGCGUAGGGAACG,≤ 0.5
21,GUUCCGUUGGCGUACUGGUAACGCGUCUCGCUCCUAAGGAGAAGACUGCGGGUUCGAGUCCCGUACGGUACG,≤ 0.5
22,GUUUCGUUGGCGUAAUGGUAACGCGUCUCCCUCCUAAGGAGGAGACUGCGGGUUCGAGUCCCGUACUGAACG,≤ 0.5
23,GUUGUGUUGGCGUAAUGGUAACGCGUCUCCCUCCUAAGGAGAAGACUGCGAGCUCGAGUCCUGUACGGAACG,≤ 0.5
24,GUUCCGUUGGCGUAAUGGUACCGCGUCUCGCUCCUAAGGAGAAGACUGCGGCUUCGAGUCCCGUACUGUACG,≤ 0.5
25,GUUCCGUUGGCUUAAUGGUAACGCGUCUCCCUCCUAAGGAGAAGACUGCGGGUCCGAGUCCCGUACGGAACG,0.59

row,Variant,yeast fitness
1,GUUCCGUUGGCGUACUGGUAACGCGUCUCCCUCCUAUGGAGAGGACUGCGGGUUCAAGUCCCGUACCGAACG,≤ 0.5
2,GUUCCGUUGGCGUGAUGGUAACGCGUCUCCCUCCUGAGGAGAAGACUGGGGGUUCCAGUCCCGUACGGAACG,≤ 0.5
3,GUUCCGUUGGCGUAAUGGUAACGCGUCUCCCUCCUAAGGAGAAGACUGUGAGUUCGAGUCCCAUACGGAACG,≤ 0.5
4,GUUCCGUUGGCGUAAUGGUAGCGCGUCUCCCUCCUAUGGUGAAGACUGCGGGUUCGAGUCCCGCACAGAACG,≤ 0.5
5,GUUCGGUUGGCGUAAUGGUAAGGCGUCUCCCUCCUAAGGAGAAGACUGCGGGUUCGAGUCCCGUACCGAACG,≤ 0.5
6,GUUCCGGUGGGGUAAUGGCAACGCGUCUCCCUCUUAAGGAAAAGACUGCGGGUUCGAGUCCCGUACGGAACG,≤ 0.5
7,GUUCCGUUGGCGUAAUGGAAAUGCGUCUCCCUCCUAAGGAGAAGACUGCUGGUUCGAGUCCCGUACGGAACG,≤ 0.5
8,GUUCCGCUGGCGUAAUGGUAACGCGUCUCCGUCGUAAGGAGUAGACUGCGGGUUCGAGUCCCGUAAGGAACG,≤ 0.5
9,GUUCCGUUGGCGUAAUGGUAAAGCGUAUCCCUUUUAAGCAGAAGACUGCGGGCUCGAGUCGCGUACGGAACG,≤ 0.5
10,GUUCCGUUGGCGUUAGGGAAACGCGUCUCCCUCCUAAGGAGGAGACUGCGGGUUCGAGUCCCGUACGGAUCG,≤ 0.5
11,GUUCCGUUGGCGUAACGGUAACGGGUCUCGCUCCUUAGGAGAAGACUGCGGGUUCGAGUCCCGUACGGAACG,≤ 0.5
12,GUUCCGUUGGCGUGAUGGUAACGCGUCUCGCUCCUAAGGAGAAGACUGCGGGUUCGAGUCUCGUACGGAACG,≤ 0.5
13,GUUCCGUUAGCGUAAUGGAAACGCGUCUCCUUCCUAAGGAGAAGACUGCGGGUUCGAGCCCCGUACGGAACG,≤ 0.5
14,GUUCCGUUGGCGUAAUGGUAAAGCGUCUCCCUCCUAAGGAGAAGACUGCGGGUUCGAGUCCCGUACUGAACG,0.774
15,GUUCCGUUGCCGUAAUGGUACCGCGUCUCACCCCUAAGGAGAAGACUGCGGGUUCGAGUUCCGUACCGAACG,≤ 0.5
16,GUUCCGUUGGCGCAUUGGUAACGCGUCUCCCUCCUAAGGAGAAGAAUGCGGGUUCGAGUCCCGUAUGGAACG,≤ 0.5
17,GUUCCGUUGGCGUAAUGGUAACGUGUCUCCCUCCUAAGAAGAAGACUGCGGGUUCGAGUCCCGUUCGGAACG,0.528
18,GUUCCGUUGGCGUAAUGGUAACGCGUCUCCCUCCUAAGGAGAAGACGGCGGGUUCGAGACCCGUAAGGAACG,≤ 0.5
19,GUUACGAUGGCGUAAUGGUAACGCGUCUCCUUCCUAAGGAGAAGACUGCGGGUUCGAGUCCCGUACGGAACG,≤ 0.5
20,GUUUCGUUGGCGUAAUGGUAACGCGUCUCCCUCCUAAGGAGAAGCCUGCGAGUUCGAGUCCCGUACGGAACG,0.501
21,GUUCCGUUGGCGUAACGGUAAGGCGUCUCUCUCCUAAGGAGAAGAAUGCGGGUACGGGUCCCGUACGGAACG,≤ 0.5
22,GUUCCGUUGGCGUAAUGGUAACGCGUCUCCCUCCUAAGGAGAAGACCGCGGGUUCGAGGCCCGUACGGAACG,0.936
23,GUUCCCUUGGCGUAAUGGUAACGCGUCUCCCUCCUAAGGAGGAGACUGCGGGUUCGAGUCCCUUACGGAACG,≤ 0.5
24,GUUCCGUUGGCGUAAUGGUACCGCGUCUCCCUCCUAAGGAGAAGACUGUGGGUUAGAGUCCCGUACGGAACG,≤ 0.5
25,GUUCCGUUGGCGUAAUGGUUAGGCGUCUCCCUCCUAAGGAGAAGACUGUGGGUUCGAGUCCUGUACGGAACG,≤ 0.5

row,Variant,yeast fitness
1,GUUCCGUUGGCGUAAUGGUAACGCGUCUCCCUCCUAAGGAGAAGACUGCAGCUUCGAGUCCCGUAUGGACCG,≤ 0.5
2,GUUCCGUUGGCGUAAUGAUAACGCGUCUCCCUCCUAAGACGAAGACUGCGGAUUCGAAUCCCGUGCGGAACG,≤ 0.5
3,GUUCCGUUGGCGUAGUGGUAACGCAUCUCCCUCCUAAGGAGAAGACCGCGGGUUCGAGUCCCGUACGGAACG,≤ 0.5
4,GUUUCGUUGGCGUAAUGGUAACGCGUCUCCCUCCUAAGCAGAAGACUGCGGGUUUGAGUCCCGUACGGAACG,≤ 0.5
5,GUACCGUUGGCGUAAUGGUAACGCGUCUGCCUCCUAAGGAGAAGACUGCGGGUUCGAGUGCCGUACGAAACG,≤ 0.5
6,GUUCAGUUGGCGUAAUGGUAACGCAUCCCCUUCCUAAGGCGGAGACUGCGGGUUCGAGUCCCGUACGGAACG,≤ 0.5
7,GUUCCGUUGGCGUAAUGGUAACGCAUCUCCCUCCUAAGGAGGACACUGGGGGUUCGAGUCCCGUACGGAUCG,≤ 0.5
8,GUACCGUUGGCGUAAUGGUAACGCGUCUCCCUCCUCAGGAGAAGACUGCGCGUUCGAGUCCCGUACUGAACG,≤ 0.5
9,GUUCCGUUGGCGUAAUGCUAACGCGUCUCCCUCCUAAGGAGAAGACUGCGGGUUUGAGUCCCGUACGGAGCG,≤ 0.5
10,GUUUCGUUGGCGUGAUGGUAACGCGUCUCCCUCCUCAGGAGAAGAGUGCGGGUUCGAGUCCCGUAUGGAACG,≤ 0.5
11,GUUCCGUUGGCGGCAUGGUAACGCGUCUCCCUCCUAAGCAAAAGACUGCGGGUUCGAGUCCCGUUCGCAACG,≤ 0.5
12,GUUCCGUUGGCGUAAGGGUGACGCGUCUCCCUCCUAAGGAGAAGACUGCGGGUUCGAGUCCCGUACGGCACG,0.749
13,GUUCCGUUAGAGUCAAGGUAACGCGUCUCCAUCCUAAGGAGAAGACUGCGGGUUCGAGUCCCGUACGGAACG,≤ 0.5
14,GUUCCAUUGGCGUAAUGGUAACGCGUCUCCCUCCUAAGGAGAAGACUGCGGGUUCGAGCCACGUACGGAACG,≤ 0.5
15,GUUCCCUUGGCGUAAUGGUAACGUGUCUCCCUCCUAAGGAGAAGACCGUGGGUUCCAGUCCCGUACGGAACG,≤ 0.5
16,GUUCCGGUGGCGUAAUGGUAACGCGUGGCCCUCCUAAGGAGAAGACUGCGGGUUCGUGUCCCGUACGGAACG,≤ 0.5
17,GUUCCGUUGGCGUAAUGGUAAAGCGUCUCUGUCCUAAGGAGAAGACUGCGGGUUCGAGUCUCGUACGGCACG,≤ 0.5
18,GUUCCGUUGGCGUAAUGGUAACGCGUCUCCCUCCUAAGGAGAAGACUGAGGGUUCGAGUGCCGUACGGAACG,0.638
19,GUACCGUUGGCGUAAUGGUAACGCGUUUCGCUCCUAAGGAGAAGACUGCGGGUUCGAGUCCCGUACGGAACG,≤ 0.5
20,GUUCCGUUGGAGUAAUGGUAAGGCGUCUCCCUCCUAAGGAGAAGACUGCGGGUUCGAGUCCCGUACGGACCG,≤ 0.5
21,GUUCCGUCGGCGUAAUGGUAAUGCGUGUCCCUCCUAGGGAGCAGACUGCGGGUUCGAGUCCCGUACGGAACG,≤ 0.5
22,GUUCCGUUGGCGUAAUGGUUACGCGUCUCCCUCAUAAGGAGAAGACUGCGGGUUCGAGUCCCGUAAGGAACG,≤ 0.5
23,GUUCCGUUGGCGUAAUGGUAACGAGUCUCCCUCGUAAGGUGAAGACUGCGGGUUCGAGUCGCGUACGGAACG,≤ 0.5
24,GUUCCGUUGCUGUAAUGGUAAGGCGUCUCCCUCCUAAGGAGAAGACUGCGGGGUCGAGUCCCGUACGGAACG,≤ 0.5
25,GUUCCGUUGGCGUAAUGGUAACCCGCCUCCCUCCUAAGGAGAAGAGUGCGGGUUCGAGUCCCAUACGGAACG,≤ 0.5
